This note sets out measurements from paper PMC5855539.

Results are given in words; binding and its absence hold for the method and conditions named. For some assays here: A result given as binding can be weak or reduced; the word gives no strength. For some assays here: In cells and extracts the contact can be indirect. For some assays here: Tags and fused reporters may be left off the sequences shown.

Assay [1] concerns the target T1, PmDAM4 (BiFC fusion) (Prunus mume) (UniProt G1UE22).
T1 sequence: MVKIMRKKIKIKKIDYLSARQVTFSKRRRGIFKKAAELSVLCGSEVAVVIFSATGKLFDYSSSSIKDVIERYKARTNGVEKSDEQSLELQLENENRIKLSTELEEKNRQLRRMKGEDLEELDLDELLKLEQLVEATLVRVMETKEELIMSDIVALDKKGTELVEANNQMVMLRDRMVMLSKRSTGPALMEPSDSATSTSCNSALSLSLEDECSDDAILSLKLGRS
Description: split reporter; split YFP (YFP^N and YFP^C fusions) co-expressed in N. benthamiana leaves by agroinfiltration; confocal microscopy 2-3 days post-infiltration, YFP excited at 514 nm; in the rows the binder is the YFP^N fusion and the target the YFP^C fusion.

A further assay has as its target T2, PmDAM1 (Prunus mume) (UniProt G1UE19).
T2 sequence: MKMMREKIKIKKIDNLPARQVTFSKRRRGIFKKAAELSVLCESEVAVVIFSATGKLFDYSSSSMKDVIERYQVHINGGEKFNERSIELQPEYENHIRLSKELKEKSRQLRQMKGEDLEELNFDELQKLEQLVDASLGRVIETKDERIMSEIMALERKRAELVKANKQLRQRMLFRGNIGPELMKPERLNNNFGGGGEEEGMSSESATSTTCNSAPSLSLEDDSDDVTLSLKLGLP
In words: two-hybrid; pGBKT7 baits in Y2H gold mated with pGADT7 preys in Y187; dilutions 1, 1/10, 1/100, 1/1000 on DDO and SD/-Leu/-Trp/-His/-Ade/X-α-Gal/Aba plates, 30 °C, 3-5 days; in triplicate.

For assay [2], the target named is T3, PmDAM6 (BiFC fusion) (Prunus mume) (UniProt B9A1S9).
T3 sequence: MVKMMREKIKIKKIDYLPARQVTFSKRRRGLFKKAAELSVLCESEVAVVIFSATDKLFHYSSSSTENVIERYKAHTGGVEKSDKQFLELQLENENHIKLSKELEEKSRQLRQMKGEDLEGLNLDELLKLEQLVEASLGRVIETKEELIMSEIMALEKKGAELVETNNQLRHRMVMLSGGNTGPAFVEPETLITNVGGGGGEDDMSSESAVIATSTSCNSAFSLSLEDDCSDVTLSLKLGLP
In words: split reporter; split YFP (YFP^N and YFP^C fusions) co-expressed in N. benthamiana leaves by agroinfiltration; confocal microscopy 2-3 days post-infiltration, YFP excited at 514 nm; in the rows the binder is the YFP^N fusion and the target the YFP^C fusion.

In a further assay the target is PmCBF1 (Prunus mume). Description: two-hybrid; pGBKT7 baits in Y2H gold mated with pGADT7 preys in Y187; dilutions 1, 1/10, 1/100, 1/1000 on DDO and SD/-Leu/-Trp/-His/-Ade/X-α-Gal/Aba plates, 30 °C, 3-5 days; in triplicate.
Assay [3] deals with PmCBF4 (BiFC fusion) (Prunus mume). In words: split reporter; split YFP (YFP^N and YFP^C fusions) co-expressed in N. benthamiana leaves by agroinfiltration; confocal microscopy 2-3 days post-infiltration, YFP excited at 514 nm; in the rows the binder is the YFP^N fusion and the target the YFP^C fusion.
Assay [4] addresses PmCBF1 (BiFC fusion) (Prunus mume). The description is as above.

Consider PmCBF1 (BiFC fusion) (Prunus mume), for which, in assay [1], the binding result is on record as “no binding”.
As for PmCBF1 (Prunus mume), in the assay with PmDAM1 (Prunus mume), the binding entry was “binds”.
For PmCBF4 (BiFC fusion) (Prunus mume), the binding entry in assay [2] was “no binding”.

B1: PmDAM2 (protein, UniProt G1UE20 1-240)
chain: MVKTMRKKIKIKKIDYLPARQVTFSKRRRGIFKKAEELSVLCESEVAVVIFSATGKLFDYSSSSTKNVVERYKAHTNGVEKSDEPSVELQLEIENQIRLNKELAEKSRQLRQMRGEDLEKLNIDELQKLEQLVDASLGRVIETKEELIMSEIMALERKGAELVEANNQLRQRMVMLSRGNIGPGLTEPERFINNIGDGGEEGMSSESATNATISSCSSGLSLSLEDDCSDVTLALKLGLP
For B1, in the assay with PmCBF1 (Prunus mume), the binding entry is given as “binds weakly”.

B2: PmDAM2 (BiFC fusion) (protein, UniProt G1UE20 1-240)
chain: MVKTMRKKIKIKKIDYLPARQVTFSKRRRGIFKKAEELSVLCESEVAVVIFSATGKLFDYSSSSTKNVVERYKAHTNGVEKSDEPSVELQLEIENQIRLNKELAEKSRQLRQMRGEDLEKLNIDELQKLEQLVDASLGRVIETKEELIMSEIMALERKGAELVEANNQLRQRMVMLSRGNIGPGLTEPERFINNIGDGGEEGMSSESATNATISSCSSGLSLSLEDDCSDVTLALKLGLP
Take B2: the binding entry in assay [3] was “no binding”; in assay [4] it was “binds”.

B3: PmDAM4 (protein, UniProt G1UE22 1-225)
chain: MVKIMRKKIKIKKIDYLSARQVTFSKRRRGIFKKAAELSVLCGSEVAVVIFSATGKLFDYSSSSIKDVIERYKARTNGVEKSDEQSLELQLENENRIKLSTELEEKNRQLRRMKGEDLEELDLDELLKLEQLVEATLVRVMETKEELIMSDIVALDKKGTELVEANNQMVMLRDRMVMLSKRSTGPALMEPSDSATSTSCNSALSLSLEDECSDDAILSLKLGRS
With B3, the binding result in the assay with PmCBF1 (Prunus mume) was “no binding”.

B4: PmDAM5 (protein, UniProt G1UE18 1-234)
chain: MMNKIKIKKIDYLPARQVTFSKRRRGLFKKAAELSVLCESEVAVVIFSATSKLFDYSSSSTKDVIERYNADMNGVEKSNNQEIELQLENENHIKLSKELEKTSHQLRQMKGEDLEGLNLDELLKLEQLVEASLGRVMETKEELIKSEIMELERKGAELVEANSQLRQTMVMLSGGNTGPALMDPERLNNNIEGGGEEEGMSAESAISTTCNSAVSLSLEDDSSDEVTLSLKLGR
As for B4, in the assay with PmCBF1 (Prunus mume), the binding result is “no binding”.

B5: PmDAM6 (protein, UniProt B9A1S9 1-241)
chain: MVKMMREKIKIKKIDYLPARQVTFSKRRRGLFKKAAELSVLCESEVAVVIFSATDKLFHYSSSSTENVIERYKAHTGGVEKSDKQFLELQLENENHIKLSKELEEKSRQLRQMKGEDLEGLNLDELLKLEQLVEASLGRVIETKEELIMSEIMALEKKGAELVETNNQLRHRMVMLSGGNTGPAFVEPETLITNVGGGGGEDDMSSESAVIATSTSCNSAFSLSLEDDCSDVTLSLKLGLP
For B5, in the assay with PmCBF1 (Prunus mume), the binding result is listed as “binds weakly”.

B6: PmDAM3 (protein, UniProt G1UE21 1-235)
chain: MMRKKIKIKKIDCLPARQVTFSKRRRGIFKKAAELSVLCESKVAVVIFSATGKLFDYSSSSIKDVIESYKAHKNGVKKSDEPSVELQLENENHIGLSKELEEKSHQLRQQMKAEDLEELNFDELQKLEQLVDTSLSRVIETKEELRMSEIMALERKGAELVEANNQLKQTVMLSGGNTGPTLMDPERLNDNVGGGGEEEGMSSESAISTTCNSALSLSLGDDSDDVTLSLELGLP
For B6, the binding entry with PmCBF1 (Prunus mume) was “no binding”.

B7: PmDAM3 (BiFC fusion) (protein, UniProt G1UE21 1-235)
chain: MMRKKIKIKKIDCLPARQVTFSKRRRGIFKKAAELSVLCESKVAVVIFSATGKLFDYSSSSIKDVIESYKAHKNGVKKSDEPSVELQLENENHIGLSKELEEKSHQLRQQMKAEDLEELNFDELQKLEQLVDTSLSRVIETKEELRMSEIMALERKGAELVEANNQLKQTVMLSGGNTGPTLMDPERLNDNVGGGGEEEGMSSESAISTTCNSALSLSLGDDSDDVTLSLELGLP
For B7, the binding entry in assay [4] is “no binding”.

B8: PmDAM1 (protein, UniProt G1UE19 1-235)
chain: MKMMREKIKIKKIDNLPARQVTFSKRRRGIFKKAAELSVLCESEVAVVIFSATGKLFDYSSSSMKDVIERYQVHINGGEKFNERSIELQPEYENHIRLSKELKEKSRQLRQMKGEDLEELNFDELQKLEQLVDASLGRVIETKDERIMSEIMALERKRAELVKANKQLRQRMLFRGNIGPELMKPERLNNNFGGGGEEEGMSSESATSTTCNSAPSLSLEDDSDDVTLSLKLGLP
As for B8, the binding result in the assay with PmCBF1 (Prunus mume) was “binds”.

B9: PmDAM1 (BiFC fusion) (protein, UniProt G1UE19 1-235)
chain: MKMMREKIKIKKIDNLPARQVTFSKRRRGIFKKAAELSVLCESEVAVVIFSATGKLFDYSSSSMKDVIERYQVHINGGEKFNERSIELQPEYENHIRLSKELKEKSRQLRQMKGEDLEELNFDELQKLEQLVDASLGRVIETKDERIMSEIMALERKRAELVKANKQLRQRMLFRGNIGPELMKPERLNNNFGGGGEEEGMSSESATSTTCNSAPSLSLEDDSDDVTLSLKLGLP
As to B9, the binding result is given as “no binding” in assay [3] and “binds” in assay [4].
